# The list shows a part of the results.
# B1: PX9961Q-bfa-504-27-504 (Bacteroides fragilis) (protein)
# chain: NDWLDRKPADGIPSEDAITNYNDALTARTGMYDGIQGNSNATSYYGARMFYYGDVRADDMQARTQGMRSSSCYEMLYTVDDAPNMWNIPYNVIRRANRLIEAINEKKVTDATEAQIGKIYSEALVVRALVHFDLVRIYGMPYTADNGASLGVPVIVKPLERNDLPSRNTVAEVYTQVITDLTDAINSGYLAKDQTPGYINEWAAKALLTRVYLTKGDNENALKVAEDIITNSPYKLWTNEEYVNAWYKSNGAHTNEMIFEVVNASNDDWTDRNGIAYLLNENGYADAIVTKSFMNMLSQDPKDVRIGMVLPAQYDKDLQEEYGDAKIFINKFPADKDDVGEMRLNNLPLLRLSEVYLSAAEAAAKLGGHQDKAAKYLNEIVQRANPEAKAISEADATVERIILERRKEMIGEGQRYFDALRNNETIVRYKDEGDKGYHYSLIKESQSFDRTYFRAILPIPVDETNVNPNLRAQQNPGY
# Experiments:
# Test in all cases: glycan array binding signal (z-score within array); higher = stronger binding
# Details in all cases: glycan notation: IUPAC condensed, linker removed
# [1] = target: Gal(b1-4)GlcNAc(b1-3)Gal(b1-4)GlcNAc(b1-6)[Gal(b1-3)]GalNAc
# How it was run: (§1)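 Negative Z-scores can be read as non-binding. The Z-score is calculated within each array and then averaged across arrays of one protein sequence at different concentrations or buffers and across linkers. Arrays, 3228 in all, were curated from the Consortium for Functional Glycomics database and kept only where the protein sequence was available.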
# [2] = target: Gal(b1-4)GlcNAc(b1-3)Gal(b1-4)[Fuc(a1-3)]GlcNAc(b1-3)Gal(b1-4)[Fuc(a1-3)]GlcNAc
# How it was run: as §1
# [3] = target: Gal(b1-4)GlcNAc(b1-3)GalNAc
# How it was run: as §1
# [4] = target: Gal(b1-4)GlcNAc(b1-3)[Fuc(a1-3)GlcNAc(b1-6)]Gal(b1-4)Glc
# How it was run: as §1
# [5] = target: Gal(b1-4)GlcNAc(b1-3)[Gal(b1-4)GlcNAc(b1-6)]Gal(b1-4)GlcNAc
# How it was run: as §1
# [6] = target: Gal(b1-4)GlcNAc(b1-3)[GlcNAc(b1-6)]Gal(b1-4)GlcNAc
# How it was run: as §1
# [7] = target: Gal(b1-4)GlcNAc(b1-6)Gal(b1-4)GlcNAc
# How it was run: as §1
# [8] = target: Gal(b1-4)GlcNAc(b1-6)GalNAc
# How it was run: as §1
# [9] = target: Gal(b1-4)GlcNAc(b1-6)[Gal(b1-3)]GalNAc
# How it was run: as §1
# [10] = target: Gal(b1-4)GlcNAc(b1-6)[Gal(b1-4)GlcNAc(b1-3)]GalNAc
# How it was run: as §1
# Gal(b1-4)GlcNAc6P = target: Gal(b1-4)GlcNAc6P
# How it was run: as §1
# Gal(b1-6)Gal = target: Gal(b1-6)Gal
# How it was run: as §1
# Gal3S(b1-3)GalNAc = target: Gal3S(b1-3)GalNAc
# How it was run: as §1
# Gal3S(b1-3)GlcNAc = target: Gal3S(b1-3)GlcNAc
# How it was run: as §1
# [11] = target: Gal3S(b1-3)[Fuc(a1-4)]GlcNAc
# How it was run: as §1
# Gal3S(b1-4)Glc = target: Gal3S(b1-4)Glc
# How it was run: as §1
# Gal3S(b1-4)Glc6S = target: Gal3S(b1-4)Glc6S
# How it was run: as §1
# Gal3S(b1-4)GlcNAc = target: Gal3S(b1-4)GlcNAc
# How it was run: as §1
# [12] = target: Gal3S(b1-4)[Fuc(a1-3)]Glc6S
# How it was run: as §1
# [13] = target: Gal3S(b1-4)[Fuc(a1-3)]GlcNAc
# How it was run: as §1
# [14] = target: Gal3S(b1-4)[Fuc(a1-3)]GlcNAc6S
# How it was run: as §1
# Gal3S4S(b1-4)GlcNAc = target: Gal3S4S(b1-4)GlcNAc
# How it was run: as §1
# Gal3S6S(b1-4)GlcNAc = target: Gal3S6S(b1-4)GlcNAc
# How it was run: as §1
# Gal3S6S(b1-4)GlcNAc6S = target: Gal3S6S(b1-4)GlcNAc6S
# How it was run: as §1
# Gal4S(b1-4)GlcNAc = target: Gal4S(b1-4)GlcNAc
# How it was run: as §1
# Gal4S6S(b1-4)GlcNAc = target: Gal4S6S(b1-4)GlcNAc
# How it was run: as §1
# Gal6P(b1-4)GlcNAc = target: Gal6P(b1-4)GlcNAc
# How it was run: as §1
# Gal6S(b1-3)GlcNAc = target: Gal6S(b1-3)GlcNAc
# How it was run: as §1
# Gal6S(b1-3)GlcNAc6S = target: Gal6S(b1-3)GlcNAc6S
# How it was run: as §1
# Gal6S(b1-4)Glc = target: Gal6S(b1-4)Glc
# How it was run: as §1
# Gal6S(b1-4)Glc6S = target: Gal6S(b1-4)Glc6S
# How it was run: as §1
# Gal6S(b1-4)GlcNAc = target: Gal6S(b1-4)GlcNAc
# How it was run: as §1
# Gal6S(b1-4)GlcNAc6S = target: Gal6S(b1-4)GlcNAc6S
# How it was run: as §1
# GalNAc(a1-3)Gal = target: GalNAc(a1-3)Gal
# How it was run: as §1
# GalNAc(a1-3)GalNAc = target: GalNAc(a1-3)GalNAc
# How it was run: as §1
# [15] = target: GalNAc(a1-3)GalNAc(b1-3)Gal(a1-4)Gal(b1-4)Glc
# How it was run: as §1
# [16] = target: GalNAc(a1-3)GalNAc(b1-3)Gal(a1-4)Gal(b1-4)GlcNAc
# How it was run: as §1
# GalNAc(b1-3)Gal = target: GalNAc(b1-3)Gal
# How it was run: as §1
# [17] = target: GalNAc(b1-3)Gal(a1-4)Gal(b1-4)GlcNAc
# How it was run: as §1
# [18] = target: GalNAc(b1-3)Gal(a1-4)Gal(b1-4)GlcNAc(b1-3)Gal(b1-4)Glc
# How it was run: as §1
# [19] = target: GalNAc(b1-3)Gal(a1-6)Gal(b1-4)Glc
# How it was run: as §1
# GalNAc(b1-3)GalNAc = target: GalNAc(b1-3)GalNAc
# How it was run: as §1
# GalNAc(b1-3)GlcNAc = target: GalNAc(b1-3)GlcNAc
# How it was run: as §1
# GalNAc(b1-4)Gal(b1-4)Glc = target: GalNAc(b1-4)Gal(b1-4)Glc
# How it was run: as §1
# GalNAc(b1-4)GlcNAc = target: GalNAc(b1-4)GlcNAc
# How it was run: as §1
binder,measurement,setting,value
B1,glycan array binding signal (z-score),[1],0.674
same,glycan array binding signal (z-score),[2],-0.284
same,glycan array binding signal (z-score),[3],-0.431
same,glycan array binding signal (z-score),[4],0.415
same,glycan array binding signal (z-score),[5],0.572
same,glycan array binding signal (z-score),[6],0.193
same,glycan array binding signal (z-score),[7],0.486
same,glycan array binding signal (z-score),[8],0.056
same,glycan array binding signal (z-score),[9],-0.289
same,glycan array binding signal (z-score),[10],-0.718
same,glycan array binding signal (z-score),Gal(b1-4)GlcNAc6P,0.015
same,glycan array binding signal (z-score),Gal(b1-6)Gal,0.122
same,glycan array binding signal (z-score),Gal3S(b1-3)GalNAc,-0.809
same,glycan array binding signal (z-score),Gal3S(b1-3)GlcNAc,-0.053
same,glycan array binding signal (z-score),[11],-0.484
same,glycan array binding signal (z-score),Gal3S(b1-4)Glc,0.8
same,glycan array binding signal (z-score),Gal3S(b1-4)Glc6S,-0.255
same,glycan array binding signal (z-score),Gal3S(b1-4)GlcNAc,0.727
same,glycan array binding signal (z-score),[12],-0.067
same,glycan array binding signal (z-score),[13],0.249
same,glycan array binding signal (z-score),[14],0.804
same,glycan array binding signal (z-score),Gal3S4S(b1-4)GlcNAc,-0.278
same,glycan array binding signal (z-score),Gal3S6S(b1-4)GlcNAc,-0.221
same,glycan array binding signal (z-score),Gal3S6S(b1-4)GlcNAc6S,-0.031
same,glycan array binding signal (z-score),Gal4S(b1-4)GlcNAc,-0.388
same,glycan array binding signal (z-score),Gal4S6S(b1-4)GlcNAc,-0.48
same,glycan array binding signal (z-score),Gal6P(b1-4)GlcNAc,-0.405
same,glycan array binding signal (z-score),Gal6S(b1-3)GlcNAc,-0.708
same,glycan array binding signal (z-score),Gal6S(b1-3)GlcNAc6S,0.217
same,glycan array binding signal (z-score),Gal6S(b1-4)Glc,-0.185
same,glycan array binding signal (z-score),Gal6S(b1-4)Glc6S,-0.063
same,glycan array binding signal (z-score),Gal6S(b1-4)GlcNAc,-0.679
same,glycan array binding signal (z-score),Gal6S(b1-4)GlcNAc6S,-0.591
same,glycan array binding signal (z-score),GalNAc(a1-3)Gal,-0.131
same,glycan array binding signal (z-score),GalNAc(a1-3)GalNAc,-0.295
same,glycan array binding signal (z-score),[15],-1.01
same,glycan array binding signal (z-score),[16],1.69
same,glycan array binding signal (z-score),GalNAc(b1-3)Gal,-0.079
same,glycan array binding signal (z-score),[17],-0.265
same,glycan array binding signal (z-score),[18],0.152
same,glycan array binding signal (z-score),[19],-0.567
same,glycan array binding signal (z-score),GalNAc(b1-3)GalNAc,0.041
same,glycan array binding signal (z-score),GalNAc(b1-3)GlcNAc,0.354
same,glycan array binding signal (z-score),GalNAc(b1-4)Gal(b1-4)Glc,0.821
same,glycan array binding signal (z-score),GalNAc(b1-4)GlcNAc,-0.79

# 14 entries from above, as tab-separated lines:
binder	measurement	setting	value
B1	glycan array binding signal (z-score)	Gal4S6S(b1-4)GlcNAc	-0.48
same	glycan array binding signal (z-score)	Gal6P(b1-4)GlcNAc	-0.405
same	glycan array binding signal (z-score)	Gal6S(b1-3)GlcNAc	-0.708
same	glycan array binding signal (z-score)	Gal6S(b1-3)GlcNAc6S	0.217
same	glycan array binding signal (z-score)	Gal6S(b1-4)Glc	-0.185
same	glycan array binding signal (z-score)	Gal6S(b1-4)Glc6S	-0.063
same	glycan array binding signal (z-score)	Gal6S(b1-4)GlcNAc	-0.679
same	glycan array binding signal (z-score)	Gal6S(b1-4)GlcNAc6S	-0.591
same	glycan array binding signal (z-score)	GalNAc(a1-3)Gal	-0.131
same	glycan array binding signal (z-score)	GalNAc(a1-3)GalNAc	-0.295
same	glycan array binding signal (z-score)	[15]	-1.01
same	glycan array binding signal (z-score)	[16]	1.69
same	glycan array binding signal (z-score)	GalNAc(b1-3)Gal	-0.079
same	glycan array binding signal (z-score)	[17]	-0.265
